Results from article PMC11954242.

Molecular target: T1, hepatocyte nuclear factor 4α (HNF4α) (rat (endogenous in NRVMs)) (UniProt P22449)
T1 sequence: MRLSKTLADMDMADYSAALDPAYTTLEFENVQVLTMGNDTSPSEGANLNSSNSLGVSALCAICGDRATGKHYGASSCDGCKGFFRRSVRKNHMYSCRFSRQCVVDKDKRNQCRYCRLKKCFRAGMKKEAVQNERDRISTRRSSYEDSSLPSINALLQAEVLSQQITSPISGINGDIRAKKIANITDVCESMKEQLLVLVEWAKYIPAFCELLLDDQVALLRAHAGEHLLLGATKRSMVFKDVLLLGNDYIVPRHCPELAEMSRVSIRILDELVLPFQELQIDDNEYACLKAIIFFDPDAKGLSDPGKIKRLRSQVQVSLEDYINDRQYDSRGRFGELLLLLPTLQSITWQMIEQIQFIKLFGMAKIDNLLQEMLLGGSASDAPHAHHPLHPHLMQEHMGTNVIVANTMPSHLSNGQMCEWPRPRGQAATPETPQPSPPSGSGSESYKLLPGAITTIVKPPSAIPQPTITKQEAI
Assay: co-IP; endogenous co-IP from NRVM lysates, cells under phenylephrine treatment for 24 h; specific antibody 4 h at 4 °C, then protein A/G agarose beads overnight, three PBS washes, Western blot; IgG as the control

- binding: binds
Substance: ovarian tumor domain-containing 7B (OTUD7B) (rat (endogenous in NRVMs)) (enzyme)

These are yes or no findings as the source states them, for the method shown. Binding seen in cells or lysates may run through a third protein. Binding calls can cover weak binding; strength is not graded here.
